Tested on: Ralstonia eutropha DSM428
Assay: Quantitative proteomics of Ralstonia eutropha DSM428 cultivated with or without levulinic acid (nanoLC-MS/MS)
Type: cell-based
Conditions: for % of total proteins Without LA / % of total proteins With LA: Ralstonia eutropha DSM428, shake flasks, LB rich medium, nanoLC-MS/MS protein abundance; for % of total proteins Without LA: 0 g/L levulinic acid; for % of total proteins With LA: 5 g/L levulinic acid; for expression level in response to levulinic acid (protein abundance, % of total proteins): Ralstonia eutropha DSM428, LB rich medium, 5 g/L vs 0 g/L levulinic acid, up-regulated = quantity at least multiplied by 2

Substance	% of total proteins Without LA	% of total proteins With LA	expression level in response to levulinic acid (protein abundance, % of total proteins)	abundance compared with respective counterparts identified for reactions A and B (proteomics of Ralstonia eutropha DSM428)
MDH_CUPNH	1.50 % of total proteins	1.51 % of total proteins		
CLPP_CUPNH	0.20 % of total proteins	0.20 % of total proteins		
Q0KBZ9_CUPNH: subunit of a Ralstonia eutropha succinyl-CoA:3-ketoacid-coenzyme A transferase (EC 2.8.3.5), gene H16_A1332	0.26 % of total proteins	0.76 % of total proteins	up-regulated	
Q0KBZ9_CUPNH/Q0KC00_CUPNH: the 2 subunits of succinyl-CoA:3-ketoacid-coenzyme A transferase (EC 2.8.3.5), candidate for reaction A2				more abundant
Q0KAG4_CUPNH: a 2-methylcitrate synthase (PrpC) of the 2-methylcitric acid cycle	0.49 % of total proteins	1.82 % of total proteins	up-regulated	
Q0KBG1_CUPNH: Ralstonia eutropha acetyl-CoA acetyltransferase (EC 2.3.1.9), candidate for reaction B	<0.06 % of total proteins	0.30 % of total proteins	up-regulated	
RPOB_CUPNH	2.55 % of total proteins	2.85 % of total proteins		
ENO_CUPNH	0.80 % of total proteins	0.78 % of total proteins		

From patent publication US10801050B2, “Microorganism modified for the assimilation of levulinic acid” (priority 2015, dated 2020)
